In publication PMC10920344:
These are yes or no findings as the source states them, for the method shown. Binding seen in cells or lysates may run through a third protein. Some entries that bind do so weakly or less than the wild type.

Protein sequences, listed by entry. Tags and fused reporters are not part of them.
UniProt P20339: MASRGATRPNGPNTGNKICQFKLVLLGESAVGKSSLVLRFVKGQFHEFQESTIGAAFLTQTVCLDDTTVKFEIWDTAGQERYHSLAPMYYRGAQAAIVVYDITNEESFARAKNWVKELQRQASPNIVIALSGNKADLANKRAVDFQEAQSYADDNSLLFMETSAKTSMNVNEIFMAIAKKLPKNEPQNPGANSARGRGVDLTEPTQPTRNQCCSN

Target: T1, Syntaxin-6 (human (endogenous in MM1S)) (UniProt O43752)
T1 sequence: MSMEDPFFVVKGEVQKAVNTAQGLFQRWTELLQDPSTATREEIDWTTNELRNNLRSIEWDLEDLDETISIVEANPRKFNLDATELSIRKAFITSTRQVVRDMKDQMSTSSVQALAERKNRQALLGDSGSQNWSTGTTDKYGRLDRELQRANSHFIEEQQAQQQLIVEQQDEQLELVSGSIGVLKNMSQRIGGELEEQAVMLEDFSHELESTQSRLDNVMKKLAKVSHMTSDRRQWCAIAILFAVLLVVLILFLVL
Assay: co-IP; endogenous proteins in whole cell lysates (Dignam buffer) of MM1S cells treated with control (Ctr) or MM-ZC DNA; lysate with primary antibody 4 hr in the cold, then Dynabeads Protein G 2 hr at 4C, five washes with lysis buffer, immunoblot; rabbit IgG as control IP; 3 replicates

- binding: binds
Substance: Rab5a (from UniProt P20339 1-215)
